Data from the supplement of paper PMC12067093, “Discovery and optimisation of a covalent ligand for TRIM25 and its application to targeted protein ubiquitination” (Chemical Science, 2025).
Some of the results follow.

Chains of the proteins cited; added tags and fusions are not shown. Lines headed by an entry give the natural chain unless they say otherwise; changes in a name come on top.
UniProt Q8TAG9: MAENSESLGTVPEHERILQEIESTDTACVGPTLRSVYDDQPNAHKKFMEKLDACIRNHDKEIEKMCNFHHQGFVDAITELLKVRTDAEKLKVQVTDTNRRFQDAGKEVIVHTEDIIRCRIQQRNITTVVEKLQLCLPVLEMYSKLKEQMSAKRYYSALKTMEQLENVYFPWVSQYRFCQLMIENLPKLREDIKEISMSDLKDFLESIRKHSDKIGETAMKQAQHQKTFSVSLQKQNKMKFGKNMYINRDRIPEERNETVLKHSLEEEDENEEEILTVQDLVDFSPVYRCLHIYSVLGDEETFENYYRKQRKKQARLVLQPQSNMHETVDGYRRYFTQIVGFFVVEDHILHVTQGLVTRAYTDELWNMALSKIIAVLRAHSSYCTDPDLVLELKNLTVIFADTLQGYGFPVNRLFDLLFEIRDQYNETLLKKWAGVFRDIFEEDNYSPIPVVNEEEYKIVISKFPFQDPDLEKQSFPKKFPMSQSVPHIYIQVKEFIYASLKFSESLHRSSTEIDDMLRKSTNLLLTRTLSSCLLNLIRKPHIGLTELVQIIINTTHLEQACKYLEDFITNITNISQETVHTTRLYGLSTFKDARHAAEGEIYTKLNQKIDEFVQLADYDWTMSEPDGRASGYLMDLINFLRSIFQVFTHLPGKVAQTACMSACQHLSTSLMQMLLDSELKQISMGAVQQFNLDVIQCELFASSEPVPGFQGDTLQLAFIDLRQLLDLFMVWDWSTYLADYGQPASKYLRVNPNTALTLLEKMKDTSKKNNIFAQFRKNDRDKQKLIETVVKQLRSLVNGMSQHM
UniProt Q96EK7: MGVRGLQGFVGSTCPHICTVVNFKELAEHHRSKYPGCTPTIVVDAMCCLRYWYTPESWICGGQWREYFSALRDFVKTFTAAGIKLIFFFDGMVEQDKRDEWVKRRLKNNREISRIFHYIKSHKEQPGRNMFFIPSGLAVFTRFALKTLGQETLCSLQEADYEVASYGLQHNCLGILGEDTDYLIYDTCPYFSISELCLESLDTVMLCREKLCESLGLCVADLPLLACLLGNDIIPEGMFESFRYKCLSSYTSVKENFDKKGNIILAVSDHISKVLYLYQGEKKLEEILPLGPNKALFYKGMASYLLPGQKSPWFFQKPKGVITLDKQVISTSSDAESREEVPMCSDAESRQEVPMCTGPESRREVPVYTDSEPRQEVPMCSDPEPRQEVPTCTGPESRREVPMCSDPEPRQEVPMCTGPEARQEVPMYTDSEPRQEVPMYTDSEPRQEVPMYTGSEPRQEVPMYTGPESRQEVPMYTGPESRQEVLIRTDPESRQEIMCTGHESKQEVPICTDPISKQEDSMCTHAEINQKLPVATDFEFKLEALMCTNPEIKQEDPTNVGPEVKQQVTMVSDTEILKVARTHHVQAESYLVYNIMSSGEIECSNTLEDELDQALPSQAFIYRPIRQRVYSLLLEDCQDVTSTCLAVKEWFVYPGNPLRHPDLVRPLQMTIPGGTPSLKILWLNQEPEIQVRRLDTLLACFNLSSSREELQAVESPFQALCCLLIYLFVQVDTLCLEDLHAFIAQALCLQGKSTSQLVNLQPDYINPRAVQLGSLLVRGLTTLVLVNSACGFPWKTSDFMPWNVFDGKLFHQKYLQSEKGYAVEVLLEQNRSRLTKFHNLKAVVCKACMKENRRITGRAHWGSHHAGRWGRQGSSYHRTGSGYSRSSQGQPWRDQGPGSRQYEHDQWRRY
UniProt O94905: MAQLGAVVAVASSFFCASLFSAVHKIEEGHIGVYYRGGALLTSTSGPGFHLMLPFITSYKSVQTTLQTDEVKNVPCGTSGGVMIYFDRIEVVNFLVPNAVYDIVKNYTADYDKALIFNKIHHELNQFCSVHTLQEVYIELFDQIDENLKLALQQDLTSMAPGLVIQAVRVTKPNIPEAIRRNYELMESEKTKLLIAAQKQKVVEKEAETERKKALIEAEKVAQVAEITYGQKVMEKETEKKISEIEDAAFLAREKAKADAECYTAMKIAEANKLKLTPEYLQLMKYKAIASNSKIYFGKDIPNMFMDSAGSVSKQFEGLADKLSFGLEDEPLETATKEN
UniProt O00471: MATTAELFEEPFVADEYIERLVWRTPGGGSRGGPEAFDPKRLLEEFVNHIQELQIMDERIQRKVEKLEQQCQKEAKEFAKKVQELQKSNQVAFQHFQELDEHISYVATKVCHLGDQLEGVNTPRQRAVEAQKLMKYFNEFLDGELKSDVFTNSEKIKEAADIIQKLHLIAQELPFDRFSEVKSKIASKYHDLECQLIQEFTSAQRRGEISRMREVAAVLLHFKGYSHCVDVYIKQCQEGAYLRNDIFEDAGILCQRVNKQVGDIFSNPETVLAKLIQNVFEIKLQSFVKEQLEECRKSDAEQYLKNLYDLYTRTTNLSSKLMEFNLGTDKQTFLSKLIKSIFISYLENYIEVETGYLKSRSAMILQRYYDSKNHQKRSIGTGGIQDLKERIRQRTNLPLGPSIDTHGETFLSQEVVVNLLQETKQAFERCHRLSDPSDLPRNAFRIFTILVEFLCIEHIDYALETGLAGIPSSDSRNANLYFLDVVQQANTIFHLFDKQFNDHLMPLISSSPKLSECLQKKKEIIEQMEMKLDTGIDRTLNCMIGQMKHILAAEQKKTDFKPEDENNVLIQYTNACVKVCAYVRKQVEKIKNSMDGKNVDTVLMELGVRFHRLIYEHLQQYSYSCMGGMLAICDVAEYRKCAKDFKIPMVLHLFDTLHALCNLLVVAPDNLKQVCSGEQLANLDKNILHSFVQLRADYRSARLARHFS
UniProt Q06265, whole entry, looked up: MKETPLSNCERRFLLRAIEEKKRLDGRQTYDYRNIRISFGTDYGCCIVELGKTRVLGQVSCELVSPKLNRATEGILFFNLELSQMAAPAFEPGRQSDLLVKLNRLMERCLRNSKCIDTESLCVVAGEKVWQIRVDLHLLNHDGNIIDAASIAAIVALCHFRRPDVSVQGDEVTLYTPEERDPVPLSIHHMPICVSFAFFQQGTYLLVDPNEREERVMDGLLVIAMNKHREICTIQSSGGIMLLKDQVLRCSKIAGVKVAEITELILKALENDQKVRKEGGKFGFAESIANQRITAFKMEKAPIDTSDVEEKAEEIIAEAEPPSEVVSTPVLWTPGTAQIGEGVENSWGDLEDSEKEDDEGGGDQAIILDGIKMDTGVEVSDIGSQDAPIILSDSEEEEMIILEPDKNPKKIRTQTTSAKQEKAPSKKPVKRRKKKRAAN
UniProt P10768: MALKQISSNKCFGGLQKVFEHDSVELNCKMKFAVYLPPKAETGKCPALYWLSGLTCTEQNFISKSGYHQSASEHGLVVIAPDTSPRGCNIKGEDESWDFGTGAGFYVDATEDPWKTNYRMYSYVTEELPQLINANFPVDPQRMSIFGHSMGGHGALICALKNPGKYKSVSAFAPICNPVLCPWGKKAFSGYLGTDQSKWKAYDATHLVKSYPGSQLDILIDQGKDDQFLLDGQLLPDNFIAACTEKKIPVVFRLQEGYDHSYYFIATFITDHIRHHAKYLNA
UniProt Q9Y3B2, whole entry, looked up: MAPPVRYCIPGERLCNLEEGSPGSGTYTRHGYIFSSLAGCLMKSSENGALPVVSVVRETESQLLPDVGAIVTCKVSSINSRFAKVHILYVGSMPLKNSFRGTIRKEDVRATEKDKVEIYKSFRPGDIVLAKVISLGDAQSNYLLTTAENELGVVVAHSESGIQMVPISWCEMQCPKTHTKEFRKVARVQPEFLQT
UniProt Q9Y282: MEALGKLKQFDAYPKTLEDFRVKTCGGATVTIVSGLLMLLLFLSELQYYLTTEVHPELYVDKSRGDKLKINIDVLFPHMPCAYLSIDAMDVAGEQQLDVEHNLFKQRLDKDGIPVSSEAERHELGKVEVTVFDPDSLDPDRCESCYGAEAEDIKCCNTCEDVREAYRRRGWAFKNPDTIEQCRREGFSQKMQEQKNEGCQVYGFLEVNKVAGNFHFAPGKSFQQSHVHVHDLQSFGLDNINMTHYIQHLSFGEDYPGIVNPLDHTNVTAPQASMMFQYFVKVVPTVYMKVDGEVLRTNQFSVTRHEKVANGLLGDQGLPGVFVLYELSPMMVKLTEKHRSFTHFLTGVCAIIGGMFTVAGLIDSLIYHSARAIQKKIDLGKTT
UniProt Q15910, whole entry, looked up: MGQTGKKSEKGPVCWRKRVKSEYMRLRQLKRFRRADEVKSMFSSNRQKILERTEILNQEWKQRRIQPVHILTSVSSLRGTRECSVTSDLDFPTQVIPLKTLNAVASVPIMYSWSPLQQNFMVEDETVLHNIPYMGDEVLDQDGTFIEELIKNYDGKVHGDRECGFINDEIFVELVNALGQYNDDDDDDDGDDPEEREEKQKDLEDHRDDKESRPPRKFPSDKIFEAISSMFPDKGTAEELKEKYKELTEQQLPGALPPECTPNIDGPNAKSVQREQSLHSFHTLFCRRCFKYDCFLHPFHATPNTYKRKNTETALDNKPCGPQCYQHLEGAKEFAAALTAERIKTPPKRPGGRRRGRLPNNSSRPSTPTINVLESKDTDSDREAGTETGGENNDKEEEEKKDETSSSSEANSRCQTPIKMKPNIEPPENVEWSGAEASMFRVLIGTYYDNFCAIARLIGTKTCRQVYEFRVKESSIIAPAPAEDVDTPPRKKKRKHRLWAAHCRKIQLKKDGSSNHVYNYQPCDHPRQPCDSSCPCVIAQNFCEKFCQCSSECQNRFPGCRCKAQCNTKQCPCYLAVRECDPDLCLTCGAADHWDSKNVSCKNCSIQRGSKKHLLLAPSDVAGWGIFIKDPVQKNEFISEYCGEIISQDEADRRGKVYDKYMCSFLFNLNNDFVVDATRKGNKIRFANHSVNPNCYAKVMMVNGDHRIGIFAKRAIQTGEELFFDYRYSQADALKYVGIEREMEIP
UniProt Q9NV70: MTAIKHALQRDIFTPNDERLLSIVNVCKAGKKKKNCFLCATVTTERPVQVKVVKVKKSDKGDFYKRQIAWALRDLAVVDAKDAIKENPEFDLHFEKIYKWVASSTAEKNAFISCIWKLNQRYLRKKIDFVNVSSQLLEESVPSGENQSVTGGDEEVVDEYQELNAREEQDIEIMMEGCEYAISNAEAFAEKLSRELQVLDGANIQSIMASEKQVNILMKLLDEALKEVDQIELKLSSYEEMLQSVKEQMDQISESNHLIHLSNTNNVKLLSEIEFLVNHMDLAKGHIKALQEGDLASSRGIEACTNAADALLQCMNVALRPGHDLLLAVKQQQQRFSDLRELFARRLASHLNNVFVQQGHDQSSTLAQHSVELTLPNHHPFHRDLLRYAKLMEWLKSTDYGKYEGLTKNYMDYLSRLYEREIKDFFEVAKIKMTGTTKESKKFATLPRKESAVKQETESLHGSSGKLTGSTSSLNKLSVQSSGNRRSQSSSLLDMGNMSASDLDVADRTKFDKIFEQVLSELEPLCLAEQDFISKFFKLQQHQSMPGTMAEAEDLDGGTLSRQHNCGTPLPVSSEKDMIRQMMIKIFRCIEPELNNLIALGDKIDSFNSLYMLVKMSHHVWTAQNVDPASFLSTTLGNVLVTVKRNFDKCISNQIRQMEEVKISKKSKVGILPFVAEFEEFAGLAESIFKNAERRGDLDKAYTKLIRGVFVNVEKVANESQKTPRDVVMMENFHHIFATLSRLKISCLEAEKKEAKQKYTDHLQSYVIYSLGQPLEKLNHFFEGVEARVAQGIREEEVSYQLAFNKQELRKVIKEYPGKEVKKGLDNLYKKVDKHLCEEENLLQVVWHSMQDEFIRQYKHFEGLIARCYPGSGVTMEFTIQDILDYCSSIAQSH
UniProt Q01469, whole entry, looked up: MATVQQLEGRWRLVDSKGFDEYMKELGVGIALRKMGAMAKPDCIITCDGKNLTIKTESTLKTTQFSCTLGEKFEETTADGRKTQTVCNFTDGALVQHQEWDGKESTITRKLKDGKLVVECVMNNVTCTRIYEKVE
UniProt Q9UNN5: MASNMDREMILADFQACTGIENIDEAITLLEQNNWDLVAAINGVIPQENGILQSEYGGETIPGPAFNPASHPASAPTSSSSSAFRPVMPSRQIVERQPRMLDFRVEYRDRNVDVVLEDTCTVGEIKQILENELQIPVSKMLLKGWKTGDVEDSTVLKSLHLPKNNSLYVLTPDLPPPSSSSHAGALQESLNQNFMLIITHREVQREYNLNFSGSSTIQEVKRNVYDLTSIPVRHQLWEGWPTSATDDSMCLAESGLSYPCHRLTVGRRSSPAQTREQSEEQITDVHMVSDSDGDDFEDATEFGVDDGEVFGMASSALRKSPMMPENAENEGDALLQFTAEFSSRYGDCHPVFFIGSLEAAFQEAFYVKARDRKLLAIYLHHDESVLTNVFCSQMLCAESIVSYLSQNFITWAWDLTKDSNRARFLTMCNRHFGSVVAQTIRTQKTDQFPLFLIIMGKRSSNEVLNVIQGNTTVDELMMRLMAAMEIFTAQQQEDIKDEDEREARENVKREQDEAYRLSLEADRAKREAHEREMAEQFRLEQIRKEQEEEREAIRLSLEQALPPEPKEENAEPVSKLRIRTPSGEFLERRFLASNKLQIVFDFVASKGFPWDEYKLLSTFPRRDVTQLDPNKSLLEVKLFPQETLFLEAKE
UniProt P84090, whole entry, looked up: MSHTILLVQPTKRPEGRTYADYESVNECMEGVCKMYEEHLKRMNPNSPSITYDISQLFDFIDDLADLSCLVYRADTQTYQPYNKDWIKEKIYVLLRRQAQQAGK

Compound: Cc1cc(ccc1-c1ccccc1)C(=O)N1CCCN(CC1)C(=O)CCl [compound 10]
Experiment: probe-labelled cysteine peptide fold change vs DMSO (competition) (log2 fold change); higher = less target engagement (more negative = stronger competition)
Details: THP-1, incubation time: 4 h
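Further: competitive profiling in live THP-1 cells: cysteine peptides tagged with an iodoacetamide desthiobiotin (IA-DTB) probe, intensity after compound treatment relative to DMSO-treated cells.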

Target | probe-labelled cysteine peptide fold change (10 µM) | probe-labelled cysteine peptide fold change (50 µM)
EXOC6_Q8TAG9_561_KPHIGLTELVQIIINTTHLEQACK (UniProt Q8TAG9) | 0.0168 | 0.367
FAM120B_Q96EK7_18_GLQGFVGSTCPHICTVVNFK (UniProt Q96EK7) | 0.197 | -0.191
ERLIN2_O94905_262_ADAECYTAMK (UniProt O94905) | -0.183 | 0.205
F2_P00734_407_WVLTAAHCLLYPPWDK (UniProt P00734) | -0.487 | -0.615
EXOC5_O00471_542_TLNCMIGQMK (UniProt O00471) | -0.0135 | 0.00507
ESYT2_A0FGR8_181_ACDLPAWVHFPDTERAEWLNK (UniProt A0FGR8) | -0.209 | -0.48
EXOSC9_Q06265_45+46_ISFGTDYGCCIVELGK (UniProt Q06265) | 0.111 | -0.197
ESCO2_Q56NI9_132_MQGKPVCSK (UniProt Q56NI9) | 0.0759 | 0.0284
FAM114A2_Q9NRY5_425_SQTLSQMTIVLCK (UniProt Q9NRY5) | 0.0706 | 0.151
ESD_P10768_45+56_CPALYWLSGLTCTEQNFISK (UniProt P10768) | 0.119 | -0.309
EXOSC1_Q9Y3B2_15_LCNLEEGSPGSGTYTR (UniProt Q9Y3B2) | 0.107 | -0.0608
ERGIC3_Q9Y282_182_NPDTIEQCR (UniProt Q9Y282) | -0.124 | 0.064
EZH2_Q15910_588_ECDPDLCLTCGAADHWDSK (UniProt Q15910) | -0.0494 | 0.107
EXOC5_O00471_517_LSECLQK (UniProt O00471) | -0.113 | -0.144
EXOC1_Q9NV70_36_NCFLCATVTTERPVQVK (UniProt Q9NV70) | 0.0396 | 0.0319
FAM120A_Q9NZB2_53_LLVDADNCLHR (UniProt Q9NZB2) | 0.128 | 0.139
FABP5_Q01469_43_KMGAMAKPDCIITCDGK (UniProt Q01469) | -0.1 | -0.767
EXOC6_Q8TAG9_66_MCNFHHQGFVDAITELLK (UniProt Q8TAG9) | 0.0644 | -0.864
FAF1_Q9UNN5_120_NVDVVLEDTCTVGEIK (UniProt Q9UNN5) | 0.0136 | 0.109
ESRRA_P11474_46_CLPGHKEEEDGEGAGPGEQGGGK (UniProt P11474) | -0.312 | -0.401
FAM129A_Q9BZQ8_177_HGYFCFHEAADQK (UniProt Q9BZQ8) | -0.0119 | 0.136
ERH_P84090_28_TYADYESVNECMEGVCK (UniProt P84090) | 0.162 | 0.083
FAM120B_Q96EK7_547_LEALMCTNPEIK (UniProt Q96EK7) | -0.253 | 0.187

Exported as tab-separated lines: part of the list above
Target	probe-labelled cysteine peptide fold change (10 µM)	probe-labelled cysteine peptide fold change (50 µM)
EXOC1_Q9NV70_36_NCFLCATVTTERPVQVK (UniProt Q9NV70)	0.0396	0.0319
FAF1_Q9UNN5_120_NVDVVLEDTCTVGEIK (UniProt Q9UNN5)	0.0136	0.109
